{
  "sequences": {"note": "Protein sequences, listed by entry. Tags and fused reporters are not part of them. Residues count along the entry.", "UniProt F5HAK9, residues 22-730": "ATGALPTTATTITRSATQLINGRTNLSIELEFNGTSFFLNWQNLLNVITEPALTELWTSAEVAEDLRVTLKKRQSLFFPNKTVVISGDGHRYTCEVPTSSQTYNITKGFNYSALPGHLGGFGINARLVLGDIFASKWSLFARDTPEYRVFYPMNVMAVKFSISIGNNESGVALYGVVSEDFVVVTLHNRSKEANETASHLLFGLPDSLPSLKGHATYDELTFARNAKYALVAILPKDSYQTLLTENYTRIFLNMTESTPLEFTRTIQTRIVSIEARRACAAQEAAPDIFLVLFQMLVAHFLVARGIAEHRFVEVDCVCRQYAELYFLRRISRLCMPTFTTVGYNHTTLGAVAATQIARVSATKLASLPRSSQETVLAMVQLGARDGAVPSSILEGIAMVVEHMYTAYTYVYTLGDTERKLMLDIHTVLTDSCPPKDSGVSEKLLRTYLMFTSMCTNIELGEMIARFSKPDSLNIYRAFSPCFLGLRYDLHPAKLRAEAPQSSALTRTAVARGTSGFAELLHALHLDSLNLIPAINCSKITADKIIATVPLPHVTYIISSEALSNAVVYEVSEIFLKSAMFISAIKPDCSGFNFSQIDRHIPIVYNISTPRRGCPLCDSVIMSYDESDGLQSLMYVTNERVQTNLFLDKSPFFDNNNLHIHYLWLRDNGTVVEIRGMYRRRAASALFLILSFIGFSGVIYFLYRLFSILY", "UniProt P29317, residues 24-976": "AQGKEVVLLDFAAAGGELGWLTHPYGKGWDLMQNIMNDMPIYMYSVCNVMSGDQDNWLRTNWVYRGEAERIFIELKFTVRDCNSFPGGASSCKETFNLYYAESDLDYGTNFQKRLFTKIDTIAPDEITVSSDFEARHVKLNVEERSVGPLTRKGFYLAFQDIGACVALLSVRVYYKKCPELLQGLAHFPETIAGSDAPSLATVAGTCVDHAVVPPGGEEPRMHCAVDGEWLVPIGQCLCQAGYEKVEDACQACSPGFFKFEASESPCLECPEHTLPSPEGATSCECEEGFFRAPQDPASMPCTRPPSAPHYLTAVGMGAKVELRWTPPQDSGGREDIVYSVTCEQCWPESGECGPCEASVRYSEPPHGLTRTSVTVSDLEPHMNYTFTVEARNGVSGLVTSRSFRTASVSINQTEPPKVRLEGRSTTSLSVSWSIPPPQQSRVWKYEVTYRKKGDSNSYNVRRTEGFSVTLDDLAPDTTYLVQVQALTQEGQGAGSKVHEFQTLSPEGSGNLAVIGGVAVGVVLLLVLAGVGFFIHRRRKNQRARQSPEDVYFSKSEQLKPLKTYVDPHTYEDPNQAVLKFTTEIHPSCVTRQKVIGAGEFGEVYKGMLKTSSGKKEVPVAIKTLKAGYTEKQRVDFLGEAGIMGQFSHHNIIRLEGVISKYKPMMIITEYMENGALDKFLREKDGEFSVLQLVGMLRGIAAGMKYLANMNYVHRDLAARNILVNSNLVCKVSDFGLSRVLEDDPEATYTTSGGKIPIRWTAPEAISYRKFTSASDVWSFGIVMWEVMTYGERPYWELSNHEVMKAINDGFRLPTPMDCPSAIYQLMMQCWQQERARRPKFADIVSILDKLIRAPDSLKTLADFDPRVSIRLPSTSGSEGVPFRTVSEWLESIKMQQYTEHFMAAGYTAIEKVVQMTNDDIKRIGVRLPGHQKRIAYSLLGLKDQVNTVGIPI"},
  "source": "paper PMC5825162",
  "biological_target": "V5-tagged KSHV gH (glycoprotein H), alone (Kaposi's sarcoma-associated herpesvirus (KSHV)) (UniProt F5HAK9)",
  "assay": "co-IP; gH-V5/gL-Flag complexes (input normalised) from NP40 lysates of transfected 293T cells pre-coupled to V5-tag antibody and ProteinG sepharose, one wash, then incubated overnight at 4°C with equal amounts of lysate of 293T cells transfected with full-length EphA2-myc (KSHV gH/gL) or full-length EphB3-myc (RRV gH/gL); 3 washes in NP40 lysis buffer; Western blot via the tags",
  "note": "Results are given in words; binding and its absence hold for the method and conditions named. In cells and extracts the contact can be indirect.",
  "data": [
    {"substance": "myc-tagged full-length EphA2 (from UniProt P29317-1 24-976) (receptor)", "values": [
      {"measurement": "binding", "value": "no binding"}
    ]}
  ]
}
